Experimental data: the supplement of paper PMC12067093, “Discovery and optimisation of a covalent ligand for TRIM25 and its application to targeted protein ubiquitination” (Chemical Science, 2025)
This is one part of the list.

The chains behind the UniProt entries cited, without tags or fusion partners. Where a name states a change or a piece, a line headed by the entry shows the natural chain unless it says otherwise.
UniProt O15357: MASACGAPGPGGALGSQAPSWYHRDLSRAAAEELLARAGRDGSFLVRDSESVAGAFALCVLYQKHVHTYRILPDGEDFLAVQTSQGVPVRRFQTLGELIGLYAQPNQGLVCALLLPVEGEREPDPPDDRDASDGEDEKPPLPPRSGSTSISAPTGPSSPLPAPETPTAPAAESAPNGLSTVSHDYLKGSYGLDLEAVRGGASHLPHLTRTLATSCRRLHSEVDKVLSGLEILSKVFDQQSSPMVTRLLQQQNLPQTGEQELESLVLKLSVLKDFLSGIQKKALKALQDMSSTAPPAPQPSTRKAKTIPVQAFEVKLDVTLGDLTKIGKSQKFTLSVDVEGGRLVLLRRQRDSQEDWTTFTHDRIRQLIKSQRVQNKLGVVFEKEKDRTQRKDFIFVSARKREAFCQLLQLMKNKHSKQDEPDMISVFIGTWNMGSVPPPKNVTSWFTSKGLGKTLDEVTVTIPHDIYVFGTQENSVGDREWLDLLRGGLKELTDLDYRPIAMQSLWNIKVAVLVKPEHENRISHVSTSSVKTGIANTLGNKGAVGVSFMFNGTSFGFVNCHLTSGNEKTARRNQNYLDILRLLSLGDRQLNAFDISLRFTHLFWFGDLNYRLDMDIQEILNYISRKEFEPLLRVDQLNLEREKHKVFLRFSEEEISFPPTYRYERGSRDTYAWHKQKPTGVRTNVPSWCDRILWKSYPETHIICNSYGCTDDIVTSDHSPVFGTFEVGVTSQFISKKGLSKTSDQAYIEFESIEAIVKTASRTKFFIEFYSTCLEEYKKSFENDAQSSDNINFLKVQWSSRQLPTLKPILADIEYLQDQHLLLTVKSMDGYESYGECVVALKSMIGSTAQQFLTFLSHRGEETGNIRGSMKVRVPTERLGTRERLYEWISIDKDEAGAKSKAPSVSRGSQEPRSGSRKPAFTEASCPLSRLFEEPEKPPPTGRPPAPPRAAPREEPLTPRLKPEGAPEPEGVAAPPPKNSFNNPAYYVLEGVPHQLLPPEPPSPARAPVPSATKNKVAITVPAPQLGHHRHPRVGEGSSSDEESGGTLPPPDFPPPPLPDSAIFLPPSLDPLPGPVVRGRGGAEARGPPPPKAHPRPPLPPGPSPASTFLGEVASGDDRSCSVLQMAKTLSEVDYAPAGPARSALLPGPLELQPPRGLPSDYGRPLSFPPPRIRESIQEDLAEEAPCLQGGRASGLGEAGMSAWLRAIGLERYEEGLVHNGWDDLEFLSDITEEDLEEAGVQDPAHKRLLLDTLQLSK
UniProt Q8N201, whole entry, looked up: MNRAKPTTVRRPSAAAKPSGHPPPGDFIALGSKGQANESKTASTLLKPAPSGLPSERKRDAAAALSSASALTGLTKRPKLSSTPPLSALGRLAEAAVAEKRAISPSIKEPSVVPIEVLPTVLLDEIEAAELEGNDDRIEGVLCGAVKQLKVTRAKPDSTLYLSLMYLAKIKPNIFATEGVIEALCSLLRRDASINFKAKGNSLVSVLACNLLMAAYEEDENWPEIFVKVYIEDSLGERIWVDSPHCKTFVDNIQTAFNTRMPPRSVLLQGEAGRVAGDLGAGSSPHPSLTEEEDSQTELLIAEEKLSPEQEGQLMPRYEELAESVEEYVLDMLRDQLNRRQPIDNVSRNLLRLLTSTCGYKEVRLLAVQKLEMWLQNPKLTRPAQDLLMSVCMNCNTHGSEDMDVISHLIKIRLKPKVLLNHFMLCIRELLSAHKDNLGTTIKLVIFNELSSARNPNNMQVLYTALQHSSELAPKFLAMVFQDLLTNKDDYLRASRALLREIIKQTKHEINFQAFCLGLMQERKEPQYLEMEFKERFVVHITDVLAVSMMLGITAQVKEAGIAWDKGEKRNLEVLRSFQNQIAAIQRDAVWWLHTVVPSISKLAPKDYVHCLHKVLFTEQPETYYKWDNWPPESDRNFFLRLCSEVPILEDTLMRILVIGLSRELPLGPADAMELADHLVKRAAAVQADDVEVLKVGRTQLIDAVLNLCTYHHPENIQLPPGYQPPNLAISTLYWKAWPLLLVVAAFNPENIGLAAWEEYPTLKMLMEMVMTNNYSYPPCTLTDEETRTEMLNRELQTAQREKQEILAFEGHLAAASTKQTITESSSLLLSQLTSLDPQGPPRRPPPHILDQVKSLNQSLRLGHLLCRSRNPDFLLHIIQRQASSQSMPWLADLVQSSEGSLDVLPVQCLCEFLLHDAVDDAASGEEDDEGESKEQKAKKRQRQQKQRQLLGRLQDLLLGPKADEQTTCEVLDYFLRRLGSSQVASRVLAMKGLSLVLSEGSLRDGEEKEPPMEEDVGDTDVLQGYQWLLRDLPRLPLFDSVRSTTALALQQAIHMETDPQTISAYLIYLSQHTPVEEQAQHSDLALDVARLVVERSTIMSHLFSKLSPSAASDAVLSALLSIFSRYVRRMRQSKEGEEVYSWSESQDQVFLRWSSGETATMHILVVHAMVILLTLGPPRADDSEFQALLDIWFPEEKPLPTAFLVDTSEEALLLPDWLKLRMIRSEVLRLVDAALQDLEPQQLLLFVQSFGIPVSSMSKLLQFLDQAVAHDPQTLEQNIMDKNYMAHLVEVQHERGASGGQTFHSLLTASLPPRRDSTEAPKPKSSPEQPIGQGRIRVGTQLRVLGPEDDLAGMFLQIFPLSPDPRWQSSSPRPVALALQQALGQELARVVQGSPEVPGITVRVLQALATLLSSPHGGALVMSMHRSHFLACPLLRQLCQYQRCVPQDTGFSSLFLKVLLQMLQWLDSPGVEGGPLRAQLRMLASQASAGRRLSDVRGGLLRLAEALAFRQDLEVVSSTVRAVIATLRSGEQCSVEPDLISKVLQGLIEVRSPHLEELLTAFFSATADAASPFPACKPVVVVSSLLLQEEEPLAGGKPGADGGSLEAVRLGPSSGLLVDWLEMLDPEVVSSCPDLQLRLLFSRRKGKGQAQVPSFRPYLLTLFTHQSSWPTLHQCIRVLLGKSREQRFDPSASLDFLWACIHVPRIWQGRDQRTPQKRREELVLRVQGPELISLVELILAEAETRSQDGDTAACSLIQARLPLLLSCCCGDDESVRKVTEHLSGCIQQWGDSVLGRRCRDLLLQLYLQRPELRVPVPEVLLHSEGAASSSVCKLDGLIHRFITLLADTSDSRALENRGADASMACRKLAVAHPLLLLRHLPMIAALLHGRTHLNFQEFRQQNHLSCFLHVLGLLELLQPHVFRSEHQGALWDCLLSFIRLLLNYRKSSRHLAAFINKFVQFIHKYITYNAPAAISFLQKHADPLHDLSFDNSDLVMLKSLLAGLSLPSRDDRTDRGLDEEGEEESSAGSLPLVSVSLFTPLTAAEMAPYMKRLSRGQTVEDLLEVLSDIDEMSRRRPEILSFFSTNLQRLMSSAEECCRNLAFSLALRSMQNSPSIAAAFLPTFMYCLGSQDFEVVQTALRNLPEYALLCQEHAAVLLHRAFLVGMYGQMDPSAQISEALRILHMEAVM
UniProt Q9UI26: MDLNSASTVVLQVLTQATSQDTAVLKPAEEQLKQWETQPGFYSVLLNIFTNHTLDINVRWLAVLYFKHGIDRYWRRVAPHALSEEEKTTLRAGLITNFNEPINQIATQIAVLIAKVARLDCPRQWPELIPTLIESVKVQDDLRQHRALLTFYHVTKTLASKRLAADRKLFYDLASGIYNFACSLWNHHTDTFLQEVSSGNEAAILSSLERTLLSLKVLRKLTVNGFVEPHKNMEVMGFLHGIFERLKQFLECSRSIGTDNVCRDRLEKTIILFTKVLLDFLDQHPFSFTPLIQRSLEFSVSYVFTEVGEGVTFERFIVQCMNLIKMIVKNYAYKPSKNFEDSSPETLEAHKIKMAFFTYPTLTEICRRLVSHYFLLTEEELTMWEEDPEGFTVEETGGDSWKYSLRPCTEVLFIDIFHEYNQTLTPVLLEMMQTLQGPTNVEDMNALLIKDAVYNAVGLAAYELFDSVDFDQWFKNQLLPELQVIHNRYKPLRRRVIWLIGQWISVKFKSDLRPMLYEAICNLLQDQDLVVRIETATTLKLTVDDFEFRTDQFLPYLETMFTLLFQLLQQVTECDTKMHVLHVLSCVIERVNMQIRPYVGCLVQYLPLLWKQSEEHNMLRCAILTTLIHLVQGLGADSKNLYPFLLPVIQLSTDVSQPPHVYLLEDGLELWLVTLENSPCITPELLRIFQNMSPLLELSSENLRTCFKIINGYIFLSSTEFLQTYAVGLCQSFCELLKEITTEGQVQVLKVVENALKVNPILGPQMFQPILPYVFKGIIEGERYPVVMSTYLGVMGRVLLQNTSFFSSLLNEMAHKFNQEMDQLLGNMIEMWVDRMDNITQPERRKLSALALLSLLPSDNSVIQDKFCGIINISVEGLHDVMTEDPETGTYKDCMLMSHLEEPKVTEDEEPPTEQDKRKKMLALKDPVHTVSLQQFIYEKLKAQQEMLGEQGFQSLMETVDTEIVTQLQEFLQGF
UniProt Q9H9L3: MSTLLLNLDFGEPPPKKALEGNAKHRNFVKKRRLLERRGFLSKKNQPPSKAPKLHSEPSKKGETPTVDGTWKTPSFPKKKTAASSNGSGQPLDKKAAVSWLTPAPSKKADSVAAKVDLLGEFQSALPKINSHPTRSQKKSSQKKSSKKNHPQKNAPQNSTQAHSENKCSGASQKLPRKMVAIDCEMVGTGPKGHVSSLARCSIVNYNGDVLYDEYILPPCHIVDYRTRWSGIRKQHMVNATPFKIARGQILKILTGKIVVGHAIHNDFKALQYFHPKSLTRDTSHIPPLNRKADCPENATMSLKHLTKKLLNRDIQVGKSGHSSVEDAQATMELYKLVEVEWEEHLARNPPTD
UniProt Q9NVR2, whole entry, looked up: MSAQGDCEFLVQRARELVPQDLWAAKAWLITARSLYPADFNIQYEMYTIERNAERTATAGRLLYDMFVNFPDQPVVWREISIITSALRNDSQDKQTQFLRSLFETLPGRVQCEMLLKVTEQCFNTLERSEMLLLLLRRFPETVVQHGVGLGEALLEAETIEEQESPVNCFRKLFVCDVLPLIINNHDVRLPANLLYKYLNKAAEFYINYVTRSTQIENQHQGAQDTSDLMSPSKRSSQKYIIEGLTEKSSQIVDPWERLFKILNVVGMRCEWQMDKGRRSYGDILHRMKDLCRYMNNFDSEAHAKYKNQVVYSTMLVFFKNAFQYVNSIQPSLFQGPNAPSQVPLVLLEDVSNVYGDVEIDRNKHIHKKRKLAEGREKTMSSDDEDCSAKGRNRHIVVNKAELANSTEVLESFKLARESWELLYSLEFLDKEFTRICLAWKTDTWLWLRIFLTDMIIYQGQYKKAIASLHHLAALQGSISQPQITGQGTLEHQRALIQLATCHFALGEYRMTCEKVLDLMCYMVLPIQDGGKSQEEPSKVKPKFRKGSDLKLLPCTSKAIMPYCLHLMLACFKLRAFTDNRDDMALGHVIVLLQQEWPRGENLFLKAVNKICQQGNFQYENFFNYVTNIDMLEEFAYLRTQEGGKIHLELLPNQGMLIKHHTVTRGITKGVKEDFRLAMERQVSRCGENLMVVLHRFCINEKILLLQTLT
UniProt Q8TEX9: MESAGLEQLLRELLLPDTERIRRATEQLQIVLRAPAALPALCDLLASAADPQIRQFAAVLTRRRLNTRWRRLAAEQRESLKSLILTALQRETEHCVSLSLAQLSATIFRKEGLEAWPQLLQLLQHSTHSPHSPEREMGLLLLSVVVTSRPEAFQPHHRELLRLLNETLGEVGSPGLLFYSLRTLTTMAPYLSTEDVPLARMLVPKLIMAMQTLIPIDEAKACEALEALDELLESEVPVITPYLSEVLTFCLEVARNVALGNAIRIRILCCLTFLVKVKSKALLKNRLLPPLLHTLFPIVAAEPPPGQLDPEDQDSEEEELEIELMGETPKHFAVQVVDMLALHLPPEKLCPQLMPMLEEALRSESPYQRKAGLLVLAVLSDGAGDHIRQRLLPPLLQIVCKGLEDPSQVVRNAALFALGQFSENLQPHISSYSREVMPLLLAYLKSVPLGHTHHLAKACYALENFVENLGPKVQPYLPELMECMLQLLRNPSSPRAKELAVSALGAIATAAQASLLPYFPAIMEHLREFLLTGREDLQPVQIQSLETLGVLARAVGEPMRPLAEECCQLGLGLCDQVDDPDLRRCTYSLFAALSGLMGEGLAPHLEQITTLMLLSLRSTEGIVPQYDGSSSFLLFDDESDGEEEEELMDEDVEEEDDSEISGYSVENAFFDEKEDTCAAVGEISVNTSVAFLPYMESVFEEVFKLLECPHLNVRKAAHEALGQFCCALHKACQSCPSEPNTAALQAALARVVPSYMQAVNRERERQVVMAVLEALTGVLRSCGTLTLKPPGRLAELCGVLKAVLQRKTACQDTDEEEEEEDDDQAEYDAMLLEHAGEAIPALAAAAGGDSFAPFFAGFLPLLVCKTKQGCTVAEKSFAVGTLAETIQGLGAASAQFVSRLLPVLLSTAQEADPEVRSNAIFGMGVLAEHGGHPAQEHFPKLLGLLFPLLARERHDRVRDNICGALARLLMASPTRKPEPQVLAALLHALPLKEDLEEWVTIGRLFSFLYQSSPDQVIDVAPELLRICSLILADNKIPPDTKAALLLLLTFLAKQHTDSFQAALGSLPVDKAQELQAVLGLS

These targets were tested with CC1Cc2ccccc2N1C(=O)C1CCCN(C1)C(=O)CCl (mixture of isomers) [TRIM25 ligand 11 (diastereomer mixture)] (assay: probe-labelled cysteine peptide fold change vs DMSO (competition) (log2 fold change); higher = less target engagement (more negative = stronger competition)). Settings: 10 µM; THP-1; incubation time: 4 h.
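Also: competitive chemoproteomic profiling in live THP-1 cells with an iodoacetamide desthiobiotin (IA-DTB) probe, comparing probe-labelled peptide intensities in compound-treated cells against DMSO-treated controls.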

| Target | probe-labelled cysteine peptide fold change |
| --- | --- |
| IPO5_O00410_473_VQAHAAAALINFTEDCPK (UniProt O00410) | -0.0774 |
| IPO5_O00410_682_STACQMLVCYAK (UniProt O00410) | 0.0588 |
| INPPL1_O15357_1187_ESIQEDLAEEAPCLQGGR (UniProt O15357) | 0.0945 |
| IRF2BP1_Q8IU81_518_ERLEDTHFVQCPSVPGHK (UniProt Q8IU81) | -0.184 |
| INTS9_Q9NV88_471_EVQPLHVVCPEQYTQPPPAQSHR (UniProt Q9NV88) | 0.0446 |
| INTS5_Q6P9B9_245_VLSCGLK (UniProt Q6P9B9) | -0.207 |
| INPP5D_Q92835_506_ISHICTDNVK (UniProt Q92835) | 0.0178 |
| ITGB1_P05556_301_LGGIVLPNDGQCHLENNMYTMSHYYDYPSIAHLVQK (UniProt P05556) | -0.0205 |
| IQGAP3_Q86VI3_74_LGHCFAPSVVPLKK (UniProt Q86VI3) | -0.126 |
| INTS2_Q9H0H0_722_LLATNYPHLCIVDDWICEEEITGTDALLRR (UniProt Q9H0H0) | -0.262 |
| INTS1_Q8N201_611_DYVHCLHK (UniProt Q8N201) | 0.0589 |
| INPP5D_Q92835_902_APPCSGSSITEIINPNYMGVGPFGPPMPLHVK (UniProt Q92835) | -0.129 |
| INTS1_Q8N201_2099_LMSSAEECCR (UniProt Q8N201) | 0.119 |
| ITGB2_P05107_467+470_GFLECGICR (UniProt P05107) | -0.0181 |
| ITGB2_P05107_573+575_CHPGFEGSACQCER (UniProt P05107) | -0.0805 |
| IPO13_O94829_309_QAVQNGDMETSHGICR (UniProt O94829) | 0.223 |
| IPO11_Q9UI26_894_DCMLMSHLEEPK (UniProt Q9UI26) | -0.13 |
| IPO13_O94829_848_CGEVESVGK (UniProt O94829) | -0.0111 |
| ITGAL_P20701_1154_GVPNGIPAEDSEQLASGQEAGDPGCLK (UniProt P20701) | 0.0299 |

| Target | probe-labelled cysteine peptide fold change |
| --- | --- |
| ITGB2_P05107_286_CHLEDNLYKR (UniProt P05107) | -0.0811 |
| INPP5D_Q92835_217_LTTLLCK (UniProt Q92835) | 0.0443 |
| ITGA4_P13612_198_KFGENFASCQAGISSFYTK (UniProt P13612) | -0.0972 |
| INPP5B_P32019_990_AQEFIHQFLCNPL (UniProt P32019) | -0.46 |
| ISG20L2_Q9H9L3_295_KADCPENATMSLK (UniProt Q9H9L3) | 0.0817 |
| INTS2_Q9H0H0_1188_DTGSMDPDVQLCHCIER (UniProt Q9H0H0) | 0.243 |
| ITGB2_P05107_628_YISCAECLK (UniProt P05107) | 0.197 |
| INTS13_Q9NVM9_134_ADPECCSILHGLVAAVETLCK (UniProt Q9NVM9) | 0.0397 |
| IRF3_Q14653_267_HVLSCLGGGLALWR (UniProt Q14653) | -0.17 |
| ITGAL_P20701_998_IQPSIHDHNIPTLEAVVGVPQPPSEGPITHQWSVQMEPPVPCHYEDLER (UniProt P20701) | 0.305 |
| INPP5D_Q92835_138_NIPLTASSCEAK (UniProt Q92835) | -0.0268 |
| ITGB2_P05107_73_GCAADDIMDPTSLAETQEDHNGGQK (UniProt P05107) | -0.0388 |
| INTS14_Q96SY0_464_ECTLLPETAHPDAAFQLTHAAQQLK (UniProt Q96SY0) | -0.00928 |
| ITGB2_P05107_198_ECQPPFAFR (UniProt P05107) | -0.0135 |
| INTS10_Q9NVR2_176_LFVCDVLPLIINNHDVR (UniProt Q9NVR2) | 0.0398 |
| INPP5D_Q92835_4_MVPCWNHGNITR (UniProt Q92835) | -0.0643 |
| ITGA4_P13612_861_VCALEQQK (UniProt P13612) | -0.00319 |
| IRF2BP1_Q8IU81_518_LEDTHFVQCPSVPGHK (UniProt Q8IU81) | 0.0586 |
| IPO4_Q8TEX9_962_VRDNICGALAR (UniProt Q8TEX9) | -0.0638 |

Same assay, conditions: 50 µM; THP-1; incubation time: 4 h

| Target | probe-labelled cysteine peptide fold change |
| --- | --- |
| IPO5_O00410_473_VQAHAAAALINFTEDCPK (UniProt O00410) | 0.0903 |
| IPO5_O00410_682_STACQMLVCYAK (UniProt O00410) | 0.0264 |
| INPPL1_O15357_1187_ESIQEDLAEEAPCLQGGR (UniProt O15357) | -0.0639 |
| IRF2BP1_Q8IU81_518_ERLEDTHFVQCPSVPGHK (UniProt Q8IU81) | -0.254 |
| INTS9_Q9NV88_471_EVQPLHVVCPEQYTQPPPAQSHR (UniProt Q9NV88) | 0.0453 |
| INTS5_Q6P9B9_245_VLSCGLK (UniProt Q6P9B9) | -0.0661 |
| INPP5D_Q92835_506_ISHICTDNVK (UniProt Q92835) | 0.119 |
| ITGB1_P05556_301_LGGIVLPNDGQCHLENNMYTMSHYYDYPSIAHLVQK (UniProt P05556) | 0.00143 |
| IQGAP3_Q86VI3_74_LGHCFAPSVVPLKK (UniProt Q86VI3) | -0.078 |
| INTS2_Q9H0H0_722_LLATNYPHLCIVDDWICEEEITGTDALLRR (UniProt Q9H0H0) | -0.192 |
| INTS1_Q8N201_611_DYVHCLHK (UniProt Q8N201) | 0.116 |
| INPP5D_Q92835_902_APPCSGSSITEIINPNYMGVGPFGPPMPLHVK (UniProt Q92835) | -0.373 |
| INTS1_Q8N201_2099_LMSSAEECCR (UniProt Q8N201) | 0.0951 |
| ITGB2_P05107_467+470_GFLECGICR (UniProt P05107) | 0.244 |
| ITGB2_P05107_573+575_CHPGFEGSACQCER (UniProt P05107) | 0.129 |
| IPO13_O94829_309_QAVQNGDMETSHGICR (UniProt O94829) | 0.203 |
| IPO11_Q9UI26_894_DCMLMSHLEEPK (UniProt Q9UI26) | -0.393 |
| IPO13_O94829_848_CGEVESVGK (UniProt O94829) | -0.255 |
| ITGAL_P20701_1154_GVPNGIPAEDSEQLASGQEAGDPGCLK (UniProt P20701) | -0.0274 |

| Target | probe-labelled cysteine peptide fold change |
| --- | --- |
| ITGB2_P05107_286_CHLEDNLYKR (UniProt P05107) | 0.0597 |
| INPP5D_Q92835_217_LTTLLCK (UniProt Q92835) | 0.0869 |
| ITGA4_P13612_198_KFGENFASCQAGISSFYTK (UniProt P13612) | -0.0476 |
| INPP5B_P32019_990_AQEFIHQFLCNPL (UniProt P32019) | -0.548 |
| ISG20L2_Q9H9L3_295_KADCPENATMSLK (UniProt Q9H9L3) | -0.0591 |
| INTS2_Q9H0H0_1188_DTGSMDPDVQLCHCIER (UniProt Q9H0H0) | 0.145 |
| ITGB2_P05107_628_YISCAECLK (UniProt P05107) | 0.375 |
| INTS13_Q9NVM9_134_ADPECCSILHGLVAAVETLCK (UniProt Q9NVM9) | -0.0396 |
| IRF3_Q14653_267_HVLSCLGGGLALWR (UniProt Q14653) | 0.346 |
| ITGAL_P20701_998_IQPSIHDHNIPTLEAVVGVPQPPSEGPITHQWSVQMEPPVPCHYEDLER (UniProt P20701) | 0.0829 |
| INPP5D_Q92835_138_NIPLTASSCEAK (UniProt Q92835) | -0.162 |
| ITGB2_P05107_73_GCAADDIMDPTSLAETQEDHNGGQK (UniProt P05107) | 0.0326 |
| INTS14_Q96SY0_464_ECTLLPETAHPDAAFQLTHAAQQLK (UniProt Q96SY0) | 0.131 |
| ITGB2_P05107_198_ECQPPFAFR (UniProt P05107) | -0.0218 |
| INTS10_Q9NVR2_176_LFVCDVLPLIINNHDVR (UniProt Q9NVR2) | 0.23 |
| INPP5D_Q92835_4_MVPCWNHGNITR (UniProt Q92835) | -0.13 |
| ITGA4_P13612_861_VCALEQQK (UniProt P13612) | 0.157 |
| IRF2BP1_Q8IU81_518_LEDTHFVQCPSVPGHK (UniProt Q8IU81) | -0.0162 |
| IPO4_Q8TEX9_962_VRDNICGALAR (UniProt Q8TEX9) | 0.0403 |
